Source: publication PMC3713010

Sequences of proteins named here, by UniProt entry; tags and fusion partners are left off. Residues count along the entry.
UniProt P63015, 190-289: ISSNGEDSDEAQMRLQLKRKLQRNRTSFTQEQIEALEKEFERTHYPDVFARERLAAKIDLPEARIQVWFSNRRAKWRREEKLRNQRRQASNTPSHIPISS

Assays:
Assay in all cases: EMSA
Conditions in all cases: EMSA: 20 ng GST-fusion protein, 20 mM HEPES pH 7.8, 45 mM KCl, 10 mM NaCl, 1 mM EDTA, 1 mM DTT, 10% glycerol, 0.2 ug/uL BSA, 0.1% NP-40, 50 ng poly-dIdC; recombinant protein; protein details: GST (N-terminal, pGEX-6P-1); label: 32P
[1] = molecular target: Pax6 DNA-binding domain (BD-Pax6) (Mus musculus (B6)) (UniProt P63015)
[2] = molecular target: T1, Oct6 DNA-binding domain (BD-Oct6) (Mus musculus (B6)) (UniProt P21952)
T1 sequence (looked up, limits assumed): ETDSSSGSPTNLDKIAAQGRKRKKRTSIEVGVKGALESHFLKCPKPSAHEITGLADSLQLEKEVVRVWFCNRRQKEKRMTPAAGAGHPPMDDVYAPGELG

[3] = molecular target: T2, Brn2 DNA-binding domain (BD-Brn2) (Mus musculus (B6)) (UniProt P31360)
T2 sequence (looked up, limits assumed): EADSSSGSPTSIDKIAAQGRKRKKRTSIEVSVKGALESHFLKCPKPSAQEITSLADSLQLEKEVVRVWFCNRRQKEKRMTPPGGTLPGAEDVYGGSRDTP

Measured: binding result

GGGAGTTGAGGGGACTTTCCCAGGC (double strand) [NF-kB consensus probe]
no binding: [1] | [2] | [3]

Negatives hold for the conditions tested. At least one verdict rests on a figure or table, not on a statement of the authors. For part of these data: Where a protein sequence is shown, tags need not be part of it.
